Consider one molecule from publication PMC12009302.

One experiment has as its target T1, Flag-LIPT1 (UniProt Q9Y234).
T1 sequence: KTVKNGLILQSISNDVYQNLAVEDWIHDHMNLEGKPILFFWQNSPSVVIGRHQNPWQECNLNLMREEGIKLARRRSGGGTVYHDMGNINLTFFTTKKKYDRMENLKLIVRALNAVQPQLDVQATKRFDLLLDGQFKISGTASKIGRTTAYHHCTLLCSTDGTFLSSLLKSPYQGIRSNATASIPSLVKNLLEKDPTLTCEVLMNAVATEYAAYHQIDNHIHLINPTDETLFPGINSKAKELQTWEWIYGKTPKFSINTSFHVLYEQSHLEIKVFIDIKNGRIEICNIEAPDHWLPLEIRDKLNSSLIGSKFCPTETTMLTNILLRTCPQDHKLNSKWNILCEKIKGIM
Briefly: co-IP; cells lysed in IP lysis buffer with protease inhibitor; supernatant incubated with antibody overnight at 4 °C; protein A/G magnetic beads; immunoblot; endogenous and exogenous (Flag-LIPT1) set-ups.

The target of experiment [1] is T2, LIPT1 (endogenous) (human (endogenous in the paper's human cell lines; line not stated)) (UniProt Q9Y234).
T2 sequence: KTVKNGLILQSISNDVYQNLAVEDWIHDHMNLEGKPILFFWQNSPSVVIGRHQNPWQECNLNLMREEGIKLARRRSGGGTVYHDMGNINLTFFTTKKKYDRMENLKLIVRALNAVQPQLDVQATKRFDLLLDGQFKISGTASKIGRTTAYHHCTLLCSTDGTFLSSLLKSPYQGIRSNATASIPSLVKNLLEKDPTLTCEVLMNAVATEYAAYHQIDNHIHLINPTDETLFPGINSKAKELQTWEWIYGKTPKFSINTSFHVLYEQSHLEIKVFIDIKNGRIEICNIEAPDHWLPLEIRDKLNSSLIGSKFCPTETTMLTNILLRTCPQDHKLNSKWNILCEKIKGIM
The experiment is described as above.

These are yes or no findings as the source states them, for the method shown. In cells and extracts the contact can be indirect. Some entries that bind do so weakly or less than the wild type. For some assays here: Sequences can lack the tags named with a protein.

B1: E3 ubiquitin-protein ligase MGRN1 (enzyme, UniProt O60291 1-552)
chain: MGSILSRRIAGVEDIDIQANSAYRYPPKSGNYFASHFFMGGEKFDTPHPEGYLFGENMDLNFLGSRPVQFPYVTPAPHEPVKTLRSLVNIRKDSLRLVRYKDDADSPTEDGDKPRVLYSLEFTFDADARVAITIYCQASEEFLNGRAVYSPKSPSLQSETVHYKRGVSQQFSLPSFKIDFSEWKDDELNFDLDRGVFPVVIQAVVDEGDVVEVTGHAHVLLAAFEKHMDGSFSVKPLKQKQIVDRVSYLLQEIYGIENKNNQETKPSDDENSDNSNECVVCLSDLRDTLILPCRHLCLCTSCADTLRYQANNCPICRLPFRALLQIRAVRKKPGALSPVSFSPVLAQSLEHDEHSCPFKKSKPHPASLASKKPKRETNSDSVPPGYEPISLLEALNGLRAVSPAIPSAPLYEEITYSGISDGLSQASCPLAAIDHILDSSRQKGRPQSKAPDSTLRSPSSPIHEEDEEKLSEDVDAPPPLGGAELALRESSSPESFITEEVDESSSPQQGTRAASIENVLQDSSPEHCGRGPPADIYLPALGPDSCSVGIDE
In the case of B1, the binding entry (with Flag-LIPT1; in experiment [1]) was “binds” each time.
